Data reported in the supplement of paper PMC7661543.
The effect of the compound repeats well; differences between the knockouts mostly do not.

Tested on: ZR-75-1
Assay: relative cell number vs DMSO control (72 h) (% of DMSO); higher = less growth inhibition (more cells)
Experimental: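 QMAP-Seq: a pool of 5 breast cancer cell lines (ZR-75-1, SKBR3, HCC-38, MDA-MB-231, BT-20), each carrying 12 doxycycline-inducible Cas9 sgRNA perturbations (11 knockouts plus non-targeting sgNT), was treated with compounds for 72 h at four 10-fold doses (10 nM-10 uM or 1 nM-1 uM range). Barcodes were amplified and sequenced, and cell number was interpolated from 293T spike-in standard curves. The result is expressed as % of the median of DMSO wells. Two biological replicates.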

CC[C@H](Nc1ncnc2[nH]cnc12)c1nc2cccc(F)c2c(=O)n1-c1ccccc1 [CAL101]
Conditions | relative cell number
sgRNA knockout: sgATF3, 10 nM | 88.4
sgRNA knockout: sgATF3, 100 nM | 110
sgRNA knockout: sgATF3, 1000 nM | 87.5
sgRNA knockout: sgATF3, 10000 nM | 106
sgRNA knockout: sgATF4, 10 nM | 99.2
sgRNA knockout: sgATF4, 100 nM | 79.3
sgRNA knockout: sgATF4, 1000 nM | 98.7
sgRNA knockout: sgATF4, 10000 nM | 102
sgRNA knockout: sgATF6, 10 nM | 95.8
sgRNA knockout: sgATF6, 100 nM | 66.5
sgRNA knockout: sgATF6, 1000 nM | 126
sgRNA knockout: sgATF6, 10000 nM | 48
sgRNA knockout: sgATG7, 10 nM | 80.9
sgRNA knockout: sgATG7, 100 nM | 91.2
sgRNA knockout: sgATG7, 1000 nM | 84.7
sgRNA knockout: sgATG7, 10000 nM | 102
sgRNA knockout: sgERN1, 10 nM | 93.1
sgRNA knockout: sgERN1, 100 nM | 81.4
sgRNA knockout: sgERN1, 1000 nM | 81.5
sgRNA knockout: sgERN1, 10000 nM | 79.8
sgRNA knockout: sgHSF2, 10 nM | 106
sgRNA knockout: sgHSF2, 100 nM | 99.8
sgRNA knockout: sgHSF2, 1000 nM | 105
sgRNA knockout: sgHSF2, 10000 nM | 84.3
sgRNA knockout: sgNFE2L2, 10 nM | 84.9
sgRNA knockout: sgNFE2L2, 100 nM | 104
sgRNA knockout: sgNFE2L2, 1000 nM | 92
sgRNA knockout: sgNFE2L2, 10000 nM | 70.5
sgRNA knockout: sgSLC35F2, 10 nM | 89.6
sgRNA knockout: sgSLC35F2, 100 nM | 100
sgRNA knockout: sgSLC35F2, 1000 nM | 72.6
sgRNA knockout: sgSLC35F2, 10000 nM | 111
sgRNA knockout: sgXBP1, 10 nM | 85.4
sgRNA knockout: sgXBP1, 100 nM | 98.8
sgRNA knockout: sgXBP1, 1000 nM | 91.7
sgRNA knockout: sgXBP1, 10000 nM | 77.4

CC(=O)O[C@H]1C(=O)[C@@]2(C)[C@H]([C@H](OC(=O)c3ccccc3)[C@]3(O)C[C@H](OC(=O)[C@H](O)[C@@H](NC(=O)c4ccccc4)c4ccccc4)C(C)=C1C3(C)C)[C@]1(OC(C)=O)CO[C@@H]1C[C@@H]2O [Paclitaxel]
Conditions | relative cell number
sgRNA knockout: sgATF3, 10 nM | 39.3
sgRNA knockout: sgATF3, 100 nM | 20.9
sgRNA knockout: sgATF3, 1000 nM | 32.1
sgRNA knockout: sgATF3, 10000 nM | 50.4
sgRNA knockout: sgATF4, 10 nM | 48.1
sgRNA knockout: sgATF4, 100 nM | 30.1
sgRNA knockout: sgATF4, 1000 nM | 46.4
sgRNA knockout: sgATF4, 10000 nM | 52.8
sgRNA knockout: sgATF6, 10 nM | 39.6
sgRNA knockout: sgATF6, 100 nM | 28.9
sgRNA knockout: sgATF6, 1000 nM | 33.1
sgRNA knockout: sgATF6, 10000 nM | 51.4
sgRNA knockout: sgATG7, 10 nM | 29.3
sgRNA knockout: sgATG7, 100 nM | 31.5
sgRNA knockout: sgATG7, 1000 nM | 22
sgRNA knockout: sgATG7, 10000 nM | 47.3
sgRNA knockout: sgERN1, 10 nM | 51.6
sgRNA knockout: sgERN1, 100 nM | 28.5
sgRNA knockout: sgERN1, 1000 nM | 28.5
sgRNA knockout: sgERN1, 10000 nM | 53
sgRNA knockout: sgHSF2, 10 nM | 41.8
sgRNA knockout: sgHSF2, 100 nM | 23.9
sgRNA knockout: sgHSF2, 1000 nM | 27.2
sgRNA knockout: sgHSF2, 10000 nM | 34.2
sgRNA knockout: sgNFE2L2, 10 nM | 30
sgRNA knockout: sgNFE2L2, 100 nM | 23.4
sgRNA knockout: sgNFE2L2, 1000 nM | 32.4
sgRNA knockout: sgNFE2L2, 10000 nM | 39.1
sgRNA knockout: sgSLC35F2, 10 nM | 53.5
sgRNA knockout: sgSLC35F2, 100 nM | 36.8
sgRNA knockout: sgSLC35F2, 1000 nM | 24
sgRNA knockout: sgSLC35F2, 10000 nM | 42.7
sgRNA knockout: sgXBP1, 10 nM | 33.8
sgRNA knockout: sgXBP1, 100 nM | 28.6
sgRNA knockout: sgXBP1, 1000 nM | 28.3
sgRNA knockout: sgXBP1, 10000 nM | 31.8

N#Cc1ccc(C(c2ccc(C#N)cc2)n2cncn2)cc1 [Letrozole]
Conditions | relative cell number
sgRNA knockout: sgATF3, 1 nM | 108
sgRNA knockout: sgATF3, 10 nM | 86.9
sgRNA knockout: sgATF3, 100 nM | 94.2
sgRNA knockout: sgATF3, 1000 nM | 105
sgRNA knockout: sgATF4, 1 nM | 108
sgRNA knockout: sgATF4, 10 nM | 69.3
sgRNA knockout: sgATF4, 100 nM | 97.2
sgRNA knockout: sgATF4, 1000 nM | 126
sgRNA knockout: sgATF6, 1 nM | 117
sgRNA knockout: sgATF6, 10 nM | 85.17
sgRNA knockout: sgATF6, 100 nM | 87.7
sgRNA knockout: sgATF6, 1000 nM | 120
sgRNA knockout: sgATG7, 1 nM | 88.9
sgRNA knockout: sgATG7, 10 nM | 98.96
sgRNA knockout: sgATG7, 100 nM | 77.5
sgRNA knockout: sgATG7, 1000 nM | 101
sgRNA knockout: sgERN1, 1 nM | 89
sgRNA knockout: sgERN1, 10 nM | 117
sgRNA knockout: sgERN1, 100 nM | 105
sgRNA knockout: sgERN1, 1000 nM | 101
sgRNA knockout: sgHSF2, 1 nM | 88.91
sgRNA knockout: sgHSF2, 10 nM | 118
sgRNA knockout: sgHSF2, 100 nM | 99.6
sgRNA knockout: sgHSF2, 1000 nM | 92.3
sgRNA knockout: sgNFE2L2, 1 nM | 69
sgRNA knockout: sgNFE2L2, 10 nM | 102
sgRNA knockout: sgNFE2L2, 100 nM | 137
sgRNA knockout: sgNFE2L2, 1000 nM | 119
sgRNA knockout: sgSLC35F2, 1 nM | 94.1
sgRNA knockout: sgSLC35F2, 10 nM | 49.17
sgRNA knockout: sgSLC35F2, 100 nM | 66.4
sgRNA knockout: sgSLC35F2, 1000 nM | 81.1
sgRNA knockout: sgXBP1, 1 nM | 76.2
sgRNA knockout: sgXBP1, 10 nM | 113
sgRNA knockout: sgXBP1, 100 nM | 101
sgRNA knockout: sgXBP1, 1000 nM | 102

C[C@]1(c2nc3c(C(N)=O)cccc3[nH]2)CCCN1 [Veliparib]
Conditions | relative cell number
sgRNA knockout: sgATF3, 10 nM | 118
sgRNA knockout: sgATF3, 100 nM | 104
sgRNA knockout: sgATF3, 1000 nM | 86.8
sgRNA knockout: sgATF3, 10000 nM | 71.9
sgRNA knockout: sgATF4, 10 nM | 106
sgRNA knockout: sgATF4, 100 nM | 137
sgRNA knockout: sgATF4, 1000 nM | 102
sgRNA knockout: sgATF4, 10000 nM | 56.7
sgRNA knockout: sgATF6, 10 nM | 122
sgRNA knockout: sgATF6, 100 nM | 91.1
sgRNA knockout: sgATF6, 1000 nM | 116
sgRNA knockout: sgATF6, 10000 nM | 110
sgRNA knockout: sgATG7, 10 nM | 120
sgRNA knockout: sgATG7, 100 nM | 120
sgRNA knockout: sgATG7, 1000 nM | 101
sgRNA knockout: sgATG7, 10000 nM | 68.5
sgRNA knockout: sgERN1, 10 nM | 124
sgRNA knockout: sgERN1, 100 nM | 78.6
sgRNA knockout: sgERN1, 1000 nM | 109
sgRNA knockout: sgERN1, 10000 nM | 78.4
sgRNA knockout: sgHSF2, 10 nM | 103
sgRNA knockout: sgHSF2, 100 nM | 92
sgRNA knockout: sgHSF2, 1000 nM | 79
sgRNA knockout: sgHSF2, 10000 nM | 72.8
sgRNA knockout: sgNFE2L2, 10 nM | 129
sgRNA knockout: sgNFE2L2, 100 nM | 117
sgRNA knockout: sgNFE2L2, 1000 nM | 101
sgRNA knockout: sgNFE2L2, 10000 nM | 80.1
sgRNA knockout: sgSLC35F2, 10 nM | 128
sgRNA knockout: sgSLC35F2, 100 nM | 161
sgRNA knockout: sgSLC35F2, 1000 nM | 94.8
sgRNA knockout: sgSLC35F2, 10000 nM | 61.4
sgRNA knockout: sgXBP1, 10 nM | 113
sgRNA knockout: sgXBP1, 100 nM | 114
sgRNA knockout: sgXBP1, 1000 nM | 98.8
sgRNA knockout: sgXBP1, 10000 nM | 73.3

COc1cccc2c1C(=O)c1c(O)c3c(c(O)c1C2=O)C[C@@](O)(C(=O)CO)C[C@@H]3O[C@H]1C[C@H](N)[C@H](O)[C@H](C)O1 [Doxorubicin]
Conditions | relative cell number
sgRNA knockout: sgATF3, 10 nM | 90.6
sgRNA knockout: sgATF3, 100 nM | 52.8
sgRNA knockout: sgATF3, 1000 nM | 23.8
sgRNA knockout: sgATF3, 10000 nM | 6.49
sgRNA knockout: sgATF4, 10 nM | 86.2
sgRNA knockout: sgATF4, 100 nM | 40.3
sgRNA knockout: sgATF4, 1000 nM | 29.8
sgRNA knockout: sgATF4, 10000 nM | 11.8
sgRNA knockout: sgATF6, 10 nM | 90.9
sgRNA knockout: sgATF6, 100 nM | 28.6
sgRNA knockout: sgATF6, 1000 nM | 18.2
sgRNA knockout: sgATF6, 10000 nM | 7.87
sgRNA knockout: sgATG7, 10 nM | 63.9
sgRNA knockout: sgATG7, 100 nM | 36.7
sgRNA knockout: sgATG7, 1000 nM | 19.9
sgRNA knockout: sgATG7, 10000 nM | 7.352
sgRNA knockout: sgERN1, 10 nM | 75.3
sgRNA knockout: sgERN1, 100 nM | 40.4
sgRNA knockout: sgERN1, 1000 nM | 24.2
sgRNA knockout: sgERN1, 10000 nM | 13.7
sgRNA knockout: sgHSF2, 10 nM | 62.6
sgRNA knockout: sgHSF2, 100 nM | 46
sgRNA knockout: sgHSF2, 1000 nM | 25.6
sgRNA knockout: sgHSF2, 10000 nM | 5.75
sgRNA knockout: sgNFE2L2, 10 nM | 77.2
sgRNA knockout: sgNFE2L2, 100 nM | 41.6
sgRNA knockout: sgNFE2L2, 1000 nM | 23.3
sgRNA knockout: sgNFE2L2, 10000 nM | 7.55
sgRNA knockout: sgSLC35F2, 10 nM | 88.1
sgRNA knockout: sgSLC35F2, 100 nM | 45
sgRNA knockout: sgSLC35F2, 1000 nM | 25
sgRNA knockout: sgSLC35F2, 10000 nM | 8.553
sgRNA knockout: sgXBP1, 10 nM | 70.3
sgRNA knockout: sgXBP1, 100 nM | 43.3
sgRNA knockout: sgXBP1, 1000 nM | 21
sgRNA knockout: sgXBP1, 10000 nM | 8.6
